# PubChem BioAssay AID1347426 (Functional Genomics Laboratory (NCATS/FGL), 2020)
# The campaign covered roughly 31,000 sequences. About 1,400 (4.5%) were called active.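 How the source made its calls: active means median seed-adjusted z-score above 1 or below -1; inactive means the rest.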 The list shows a part of the results.
# Assay: Novel Modifiers of Survival Motor Neuron (SMN) Protein: Gene Identification via Genome-wide siRNA Screen;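 further: luminescence tracks full-length SMN protein made from the SMN2 reporter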
# Conditions: HEK293T SMN2-luciferase reporter, siRNA knockdown, 72 h; actives lie on both sides
# Outline: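 Steps: spot 1 pmol siRNA, add Lipofectamine RNAiMax in serum-free DMEM, seed HEK293T SMN2–luciferase reporter cells; incubate 72 h at 37 °C; add ONE-Glo; normalize luminescence to control siRNA, log10, MAD. Candidates: |MAD| > 1.0.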
row,Sequence,median seed-adjusted z-score
1,CGACUUCACAUACAAUUUATT against ZNF780A,inactive: 0.298
2,CCGAAGAUGAGGGAACGUATT against ROBO3,inactive: 0.131
3,CAGUGAAAGAAGAUCUAAATT against RAB23,inactive: 0.45
4,GGACGUACAGUGGUGGUAATT against ABCA3,inactive: -0.363
5,GAGCUUGUAUAUGAAGCUATT against PDCD4,inactive: -0.0842
6,GCUGCUCGCUACUUAACUATT against ACO1,inactive: -0.197
7,GGAUUUGGAUUGAUAUAUUTT against VRK2,inactive: -0.183
8,GAGUUGAGGUUUAAGACCATT against CACNG4,inactive: -0.0702
9,CAAUUGAAGGAGUUCCUAUTT against AHSA2,inactive: -0.881
10,GGACGGUGUUAAGUCGUCATT against AASS,inactive: -0.626
11,GGAUUUGGAGUAGAUCAAUTT against TIAL1,inactive: -0.985
12,GCAGCUCUCAUUUUCCAUATT against CCR5,inactive: -0.0281
13,GGCUGAGAAAAUAUCCGAATT against PDE8A,inactive: 0.302
14,GCUGGUUCAUGGUAGAUUUTT against HCN4,inactive: -0.282
15,CGCUCACAGUCAUACACGUTT against SLC39A7,inactive: 0.0554
16,GGUCAGGCCUUUUUAUACATT against ZNF354A,inactive: 0.401
17,GCACCAAUGUUUAUCUACATT against MYOT,inactive: 0.091
18,GGGAUCUUAUGGAAAGGUUTT against ACTR3B,inactive: -0.301
19,UGGAGGAAAUUUUCCGCAATT against CASP1,inactive: -0.331
20,CAGUCGAACCUUUCCCAGATT against MSRA,inactive: -0.0316
21,GGAAAAUCACAGCUGAUUATT against ZNF26,inactive: 0
22,GGAUAAAACCCUCCCUGAATT against SNAPC4,inactive: -0.62
23,GACUGCUGCUUAUCAACAATT against SPR,inactive: 0.0329

row,Sequence,median seed-adjusted z-score
1,GGCCUUGCGGUACUACUAUTT against ELK1,inactive: -0.52
2,CCUUCGUUCCAGUCAAAUUTT against ZNF14,inactive: -0.0802
3,CUAUGAGCCUAACACUGUATT against RALBP1,inactive: -0.0514
4,GCGCAUCACUAGCUGCAAATT against ABHD8,inactive: -0.48
5,GCACAAGUGCUACAGCGAUTT against PKP3,inactive: 0.205
6,CUGCCUAAACAAGAGGUUATT against UBA5,inactive: -0.105
7,GCGACUACACUAUUGGAUUTT against ITGB4,inactive: -0.226
8,GCAUCAAGACCUCCAAGUATT against ATP8B2,inactive: -0.268
9,GGACCAACCUGUGAACGAUTT against ITGB6,inactive: -0.5
10,CCCUUUUUCCGGCACAUGATT against RPS6KB2,inactive: 0
11,GGAGUAACCUGACCGUGAATT against LCN8,inactive: 0.112
12,GCAGCUGCCGGAAAUGUUATT against KRT81,inactive: -0.0955
13,GGAAUUUAUGGUUCGAAAUTT against MUT,inactive: 0.333
14,GCAGCUCAGUUUCGAUGGATT against RAET1G,inactive: -0.0655
15,GGAGGAUUUGGAUUAAGCATT against SNTG1,inactive: 0.167
16,CAAACAGCCGCAAAACUCATT against GZMK,inactive: -0.303
17,GCCCUACGUUUUCAACGGATT against PSMB1,inactive: -0.35
18,CAACAAAUGUGGACGGAGATT against NTRK1,inactive: -0.223
19,GGAUUGGAGACUUACGUUATT against ADIPOQ,inactive: 0.557
20,CCAAGUGACAAACAAGUAATT against TRDN,inactive: 0.195
21,GGAUGUAUACGGAGGAGAATT against WBSCR17,inactive: 0
22,CAAUGGUGUCUACAAGAUUTT against SLCO1C1,inactive: 0.071
23,GUUUCUGGGUGAUAAAAUUTT against FCGR2B,inactive: -0.163

row,Sequence,median seed-adjusted z-score
1,CCUUGCAACAUGUUCGUGATT against KRIT1,inactive: -0.447
2,CCAUCAAGAGGUUCCCGUATT against ABCA3,inactive: -0.363
3,CAAUAUGGGUACCUACAGATT against MMP19,inactive: 0.43
4,GUCCAGGAAUUCAUCGAUATT against BCS1L,inactive: 0.167
5,GGACUGGGAUUUCGAGCAATT against NETO2,inactive: -0.136
6,GGAGAUAGAACCUUCCAGATT against HLA-B,inactive: -0.355
7,GGAUGUACUUUCCAAACAATT against MBTPS1,inactive: -0.551
8,CGCUGGAUGCCGAAAAUGATT against ABCB10,inactive: -0.1
9,GGAGAGAUAUCUGCCCUCGTT against MARVELD3,inactive: -0.021
10,GGACAGUACCUGUUUAAGUTT against METT10D,inactive: 0.455
11,GCUCCUCUCUUAUUCGACATT against ZNF215,inactive: 0.485
12,CGUCACUGAGCUCAAGAAATT against PFKL,inactive: 0
13,GCAAAUGUCAGAGAUUGAATT against SFXN5,inactive: 0
14,CGAGUACUCUCAAGUUUUATT against FECH,inactive: 0.135
15,GGACAAGUUAGGGUUCCAATT against DND1,inactive: 0.157
16,GGAGAGAGCGUGUCCUACATT against SIRPA,inactive: -0.153
17,UGAUGACCUCGGCUCCUAUTT against ARFGAP1,inactive: 0.123
18,GGAUACGAGCUAUUUGAGATT against ZNF791,inactive: 0.219
19,GCAAGAACCUUUCAAGGCATT against ADORA2A,inactive: 0
20,AGUGACAGAGUACAAGAUATT against EIF3G,inactive: -0.198
21,GGGUGAAGAUUUACGACAUTT against CGN,inactive: 0.33
22,GGAUUAGCCGGAACAACAATT against CDH12,inactive: -0.0663
23,AGAGCAUCGUAACCCUGCATT against PMP2,inactive: 0.00618

# Fetched one by one from the entries so far (six):
row,Sequence,median seed-adjusted z-score
22,GGAUAAAACCCUCCCUGAATT against SNAPC4,inactive: -0.62
7,GGAUGUACUUUCCAAACAATT against MBTPS1,inactive: -0.551
21,GGGUGAAGAUUUACGACAUTT against CGN,inactive: 0.33
16,GGAGAGAGCGUGUCCUACATT against SIRPA,inactive: -0.153
23,GUUUCUGGGUGAUAAAAUUTT against FCGR2B,inactive: -0.163
7,GGAUUUGGAUUGAUAUAUUTT against VRK2,inactive: -0.183
